The other results are listed elsewhere or left out.
target: OsWRKY34 (Oryza sativa, UniProt Q0JBA9 1-250); assay: protein-binding microarray (RPBM); PBS, 2% BSA, 51.3 ng/ul salmon testes DNA, 50 uM zinc acetate, 200 nM TF, 25 C, 1 h; high values mean tight binding; settings: protein: recombinant; tags: N-terminal polyhistidine and DsRed monomer fusion (pET32a); label: CyDye5-dUTP incorporated in the synthesized complementary strand; 3' TTTTT single-stranded linker to array surface; dsDNA, one strand shown
Outline: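 Polyhistidine-tagged DsRed fusions of transcription factors, joined at the N-terminus, were expressed in E. coli BL21-CodonPlus and isolated on Ni–NTA. They were incubated at 200 nM for 1 h at 25 °C on a custom Agilent array, double-stranded and BSA-blocked, in PBS with 2% BSA, salmon testes DNA and 50 µM zinc acetate. The binding signal is per-feature fluorescence intensity (arbitrary units) read on an Axon 4000B scanner after washing.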

Amino acid sequences for entries named in this document (tags omitted).
UniProt Q0JBA9, entry or part of it: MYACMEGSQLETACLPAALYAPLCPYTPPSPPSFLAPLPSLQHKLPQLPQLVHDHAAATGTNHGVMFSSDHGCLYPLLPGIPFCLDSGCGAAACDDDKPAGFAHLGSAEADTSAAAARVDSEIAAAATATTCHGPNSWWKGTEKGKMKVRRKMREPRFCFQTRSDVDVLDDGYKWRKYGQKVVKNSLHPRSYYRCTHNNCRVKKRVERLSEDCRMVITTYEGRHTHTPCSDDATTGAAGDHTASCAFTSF

Sequence | binding signal
AACTTCTAACTTTTCCATTACATCGTTTCAATTTTAACCACGGAGTCACCTAGTGCAG | 9420 fluorescence intensity (a.u.)
GAAAGGTAGTACACACGCACCCCGACCACTCCCACTATTTCGGAGTCACCTAGTGCAG | 8020 fluorescence intensity (a.u.)
GGTTGTTTTCTTCGCTCAATGTTCCCAACCTCTGCCTCTCCGGAGTCACCTAGTGCAG | 10000 fluorescence intensity (a.u.)
TATATATATATATATATATATATATATATATATATATATCCGGAGTCACCTAGTGCAG | 8650 fluorescence intensity (a.u.)
CCCCTGCTGCGTGCTGCCGGCCGCCGTAAAATACAGCACTCGGAGTCACCTAGTGCAG | 9220 fluorescence intensity (a.u.)
TGGATTAGCGCCCGTCGTCCCACTCCTTTTCCATCGCGCTCGGAGTCACCTAGTGCAG | 11300 fluorescence intensity (a.u.)
TCCTCTTGCAATCATTCACTCTCCTTGCTCGATTCTATAACGGAGTCACCTAGTGCAG | 11300 fluorescence intensity (a.u.)
CTCTCTCTCCCGTTGGCGGCTTGCGCGCGCGCTTCCAGCCCGGAGTCACCTAGTGCAG | 10100 fluorescence intensity (a.u.)
GTATATCACCACTCACCTACACATCTTGGTCATACACTTCCGGAGTCACCTAGTGCAG | 13400 fluorescence intensity (a.u.)
CATGCTATAGATTAGGGCCTCGTTTAGTTCCCAATTTTTTCGGAGTCACCTAGTGCAG | 8660 fluorescence intensity (a.u.)
AACTTTTTTACTGTCAACTTTACCTGATATATATATTACTCGGAGTCACCTAGTGCAG | 8260 fluorescence intensity (a.u.)
TGCTGTGTATTGATGTATGGTCCTATGTTAGGTTAATTTACGGAGTCACCTAGTGCAG | 9570 fluorescence intensity (a.u.)
ATTCCCAATCTTCTCAATCACCTCTCTCTCTCTCAAAAACCGGAGTCACCTAGTGCAG | 8810 fluorescence intensity (a.u.)
GCCGCCGCCTTGCTCAGTTGCTCGTCGTCCTCCGCCGCCGCGGAGTCACCTAGTGCAG | 9030 fluorescence intensity (a.u.)
GGCATGGCTATATTTTCTTTCCAACTTTGCTCAATGTTTTCGGAGTCACCTAGTGCAG | 8570 fluorescence intensity (a.u.)
CACCCAGTTCTTTTGTTCTTCCTATTCTGCATTTACTTTTCGGAGTCACCTAGTGCAG | 13200 fluorescence intensity (a.u.)
GGGCCGTCCCGTCCTGTATCTTCCTTCATCTTCTTGCCATCGGAGTCACCTAGTGCAG | 9630 fluorescence intensity (a.u.)
ATTTCCGACCGGTCATATTCATTTGTCAACCTGATTGTACCGGAGTCACCTAGTGCAG | 11100 fluorescence intensity (a.u.)
AAGGGTGGGCGTGATGGAGTTTGGATGGGCCCTGCGACGGCGGAGTCACCTAGTGCAG | 9160 fluorescence intensity (a.u.)
TCGGTGTTTGGTTAGTTGAGCTGTTCTGGTCATTCTGGGCCGGAGTCACCTAGTGCAG | 9520 fluorescence intensity (a.u.)
CATGTTCTGTTTTGGCAATCCTTTTTTAGAGCGACTGGCGCGGAGTCACCTAGTGCAG | 8360 fluorescence intensity (a.u.)

At a glance, some entries already given:
Sequence | binding signal
GGTTGTTTTCTTCGCTCAATGTTCCCAACCTCTGCCTCTCCGGAGTCACCTAGTGCAG | 10000 fluorescence intensity (a.u.)
TATATATATATATATATATATATATATATATATATATATCCGGAGTCACCTAGTGCAG | 8650 fluorescence intensity (a.u.)
CCCCTGCTGCGTGCTGCCGGCCGCCGTAAAATACAGCACTCGGAGTCACCTAGTGCAG | 9220 fluorescence intensity (a.u.)

(further entries)

Sequence | binding signal
GCTCTGTGTGGTTGAGGTGATTGATTGATCTTTGGTTGGACGGAGTCACCTAGTGCAG | 9360 fluorescence intensity (a.u.)
TCACGGCCCCGCCGACCTCACGTCACCTTTTGTTGCGAGTCGGAGTCACCTAGTGCAG | 8110 fluorescence intensity (a.u.)
TCGCGCTGTCACCATCGTCGTCCCCGTTACCGAGCGCCGCCGGAGTCACCTAGTGCAG | 10200 fluorescence intensity (a.u.)
GGCGAGGCGTTTACAGGGTTGCTTCGGCTCGGGGTGGGTTCGGAGTCACCTAGTGCAG | 11300 fluorescence intensity (a.u.)
ACTCTTACTTTATCAAATCCCATTATAACTATTTATCACTCGGAGTCACCTAGTGCAG | 8870 fluorescence intensity (a.u.)
TGTTTTCGACGTGGCTCAAAATCAATATCTGGGAGGGATTCGGAGTCACCTAGTGCAG | 8060 fluorescence intensity (a.u.)
TCCCTTGGCAGTATAGGTGGGTGGTTTTGCTTACGTGGCACGGAGTCACCTAGTGCAG | 10600 fluorescence intensity (a.u.)
GCTAGGTCTGGTCGCCCCGTGTGTGTATCCGTTGCCCCTGCGGAGTCACCTAGTGCAG | 8540 fluorescence intensity (a.u.)
CCTTGTACCTCTGTCCAGATTCATTGTACTAAGATATGTCCGGAGTCACCTAGTGCAG | 8540 fluorescence intensity (a.u.)
GAGGAGGTCATTGACCCGTACTTAATTCTTCTTTTTTTTTCGGAGTCACCTAGTGCAG | 10900 fluorescence intensity (a.u.)
TATGTGTGTGTGGATGCGCGACAGGGGCGAAATATTAGGGCGGAGTCACCTAGTGCAG | 8560 fluorescence intensity (a.u.)
TCAGTGTCGGCCGCGATGTCTTTGCAGCTTTGCTGGTTTTCGGAGTCACCTAGTGCAG | 8090 fluorescence intensity (a.u.)
ATGGTTTTGTTTCCTGTTTCAGTAGTCTTATAGCATGTTTCGGAGTCACCTAGTGCAG | 8690 fluorescence intensity (a.u.)
TTCATCCGCTCTTTGTTTTTTTTGCGATTGTTTTTTTGGGCGGAGTCACCTAGTGCAG | 8320 fluorescence intensity (a.u.)
TTAGTTTTCAGCTTTGGTGTTCAGTATATATACCCACCTGCGGAGTCACCTAGTGCAG | 8140 fluorescence intensity (a.u.)
CATGATGCCATCCTTTCTGCACCTGCCTTCACCGCCATTACGGAGTCACCTAGTGCAG | 12500 fluorescence intensity (a.u.)
AAGGAAACCATCGACCGTTTGCCGCGCCCCGATTTGAACCCGGAGTCACCTAGTGCAG | 8430 fluorescence intensity (a.u.)
CCGGGGAAGGCGTTGTTGGGTGGGAGCTTCTCCTGTCGGCCGGAGTCACCTAGTGCAG | 12500 fluorescence intensity (a.u.)
ACTTTCTCTTTTTCTACGTGCATGTTATTTAAACTACTAACGGAGTCACCTAGTGCAG | 9170 fluorescence intensity (a.u.)
TTTTCTCACTAATGTTCTATTGCACACATATGCGCTTAGACGGAGTCACCTAGTGCAG | 10500 fluorescence intensity (a.u.)
CTGATCCATGCACTCCATTTGCAACCTGCGGACCTTTTAGCGGAGTCACCTAGTGCAG | 9270 fluorescence intensity (a.u.)

Reference: paper PMC7819943, “Rice protein-binding microarrays: a tool to detect cis-acting elements near promoter regions in rice”
